Measurements reported in publication doi:10.1101/2024.09.18.613695.
Results are given in words; binding and its absence hold for the method and conditions named. In cells and extracts the contact can be indirect. Some binding calls cover weakened binding; strength is not graded here.

Protein sequences, listed by entry. Tags and fused reporters are not part of them.
UniProt P51532: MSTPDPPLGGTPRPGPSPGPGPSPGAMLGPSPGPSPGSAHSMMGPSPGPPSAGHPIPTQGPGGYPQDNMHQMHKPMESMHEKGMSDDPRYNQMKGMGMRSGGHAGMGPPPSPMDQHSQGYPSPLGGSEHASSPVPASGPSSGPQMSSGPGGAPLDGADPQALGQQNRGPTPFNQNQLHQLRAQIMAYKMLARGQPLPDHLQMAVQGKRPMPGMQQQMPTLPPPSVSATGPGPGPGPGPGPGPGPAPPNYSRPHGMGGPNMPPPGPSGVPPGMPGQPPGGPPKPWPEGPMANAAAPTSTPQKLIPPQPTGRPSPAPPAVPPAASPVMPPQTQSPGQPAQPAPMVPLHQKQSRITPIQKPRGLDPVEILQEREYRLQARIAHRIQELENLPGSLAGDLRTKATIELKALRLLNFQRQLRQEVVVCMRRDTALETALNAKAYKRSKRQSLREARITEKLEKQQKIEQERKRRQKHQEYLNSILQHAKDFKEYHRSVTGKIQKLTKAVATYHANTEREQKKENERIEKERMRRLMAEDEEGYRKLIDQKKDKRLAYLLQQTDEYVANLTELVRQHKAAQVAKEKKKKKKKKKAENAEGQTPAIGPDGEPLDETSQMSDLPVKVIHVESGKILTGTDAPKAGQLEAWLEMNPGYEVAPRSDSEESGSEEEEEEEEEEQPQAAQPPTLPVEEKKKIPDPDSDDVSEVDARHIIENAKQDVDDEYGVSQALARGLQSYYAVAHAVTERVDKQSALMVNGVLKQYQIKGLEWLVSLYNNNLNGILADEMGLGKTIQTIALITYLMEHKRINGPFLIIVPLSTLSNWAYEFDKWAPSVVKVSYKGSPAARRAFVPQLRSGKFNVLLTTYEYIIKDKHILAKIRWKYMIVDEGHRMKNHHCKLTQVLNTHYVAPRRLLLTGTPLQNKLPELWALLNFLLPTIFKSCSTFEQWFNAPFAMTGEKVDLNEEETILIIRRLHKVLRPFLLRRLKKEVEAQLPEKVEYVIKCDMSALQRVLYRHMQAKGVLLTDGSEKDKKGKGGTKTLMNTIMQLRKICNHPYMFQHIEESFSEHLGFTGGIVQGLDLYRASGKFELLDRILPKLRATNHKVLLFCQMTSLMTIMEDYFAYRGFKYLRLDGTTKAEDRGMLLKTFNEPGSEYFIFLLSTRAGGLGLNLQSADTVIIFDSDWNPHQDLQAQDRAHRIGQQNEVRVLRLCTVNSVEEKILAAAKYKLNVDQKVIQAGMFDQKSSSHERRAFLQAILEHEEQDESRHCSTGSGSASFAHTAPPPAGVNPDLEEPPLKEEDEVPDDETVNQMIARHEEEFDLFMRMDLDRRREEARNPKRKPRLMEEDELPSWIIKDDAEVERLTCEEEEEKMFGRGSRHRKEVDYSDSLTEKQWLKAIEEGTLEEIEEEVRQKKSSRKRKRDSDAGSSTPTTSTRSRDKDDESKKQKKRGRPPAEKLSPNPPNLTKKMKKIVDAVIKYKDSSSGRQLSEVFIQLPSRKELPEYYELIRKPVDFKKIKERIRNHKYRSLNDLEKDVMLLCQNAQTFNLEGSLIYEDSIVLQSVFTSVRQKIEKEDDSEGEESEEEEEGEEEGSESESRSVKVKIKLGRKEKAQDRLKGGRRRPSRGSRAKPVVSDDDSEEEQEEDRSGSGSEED
UniProt Q12824: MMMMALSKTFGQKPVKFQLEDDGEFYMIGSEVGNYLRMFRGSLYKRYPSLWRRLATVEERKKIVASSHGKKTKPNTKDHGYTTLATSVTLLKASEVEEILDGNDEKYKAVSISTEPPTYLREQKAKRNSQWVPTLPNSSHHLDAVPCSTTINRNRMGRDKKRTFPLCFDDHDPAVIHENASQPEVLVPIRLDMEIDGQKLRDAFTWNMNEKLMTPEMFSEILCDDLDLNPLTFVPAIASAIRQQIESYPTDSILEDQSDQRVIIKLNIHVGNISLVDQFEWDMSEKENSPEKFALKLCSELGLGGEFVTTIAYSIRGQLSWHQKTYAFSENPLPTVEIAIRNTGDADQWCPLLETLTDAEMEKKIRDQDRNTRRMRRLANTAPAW

Molecular target: BRM/SWI2-related gene 1 (BRG1) (human (endogenous in VA-ES-BJ and NEPS)) (UniProt P51532)
Test: co-IP

SWI/SNF-related, matrix associated, actin dependent regulator of chromatin, subfamily B, member 1 (SMARCB1) (from UniProt Q12824 1-385)
binding: binds
